According to patent publication US11452758B2, “Antimicrobial peptide derived from LL37 peptide and uses thereof” (INDUSTRY-ACADEMIC COOPERATION FOUNDATION, CHOSUN UNIVERSITY, priority 2018, dated 2022):
Not every detail of the peptide structures is certain; ends, links or a residue may be inferred. Where a SMILES comes first, the peptide text is derived from it.

Tests used:
[1] = tested on: Acinetobacter baumannii KCTC 2508; format: cell-based; conditions: peptide 100 μg/ml with 10.7 nM trypsin, 10 minutes at 37° C.; A. baumannii KCTC 2508
Protocol: To determine the activity of the peptides, which have been prepared by the method of Example 1, in the presence of trypsin as one type of proteases, peptide stability against protease was determined by radial diffusion assay.
Specifically, among the bacterial strains that are described in the above Table 2, Acinetobacter baumannii KCTC 2508 cells were cultured to a mid-log phase in MHB medium, and, after diluting the cells to a cell concentration of 2×10^5 cells/10 ml, the cells were admixed with agarose which has been adjusted to final concentration of 1% and then evenly spread and solidified on a Petri dish. After that, the peptide adjusted to a concentration of 100 μg/ml was admixed with 10.7 nM trypsin and reacted for 10 minutes at 37° C. After applying a paper disk (diameter: 6 mm) on the solidified Petri dish, the peptide obtained after the reaction with trypsin was aliquoted thereto in an amount of 25 μl. After culture for 18 hours at 37° C., diameter of the clear zone around the paper disk was measured so that the level of antimicrobial activity for Acinetobacter baumannii KCTC 2508 was determined.

[2] = tested on: Human macrophage cells (U937) infected with Acinetobacter baumannii KCTC 2508; test: Expression of inflammatory cytokines, Western blot and real time RT-PCR; format: cell-based; conditions: U937 infected with A. baumannii KCTC 2508, peptide added 1 hour after infection, sample after 9 hours
Protocol: To see whether or not a change in expression of inflammatory cytokines in macrophage is caused by the peptides that are prepared by the method of above Example 1, determination was made by Western blot and real time reverse transcription polymerase chain reaction.
Specifically, Acinetobacter baumannii KCTC 2508 cells were cultured to a mid-log phase in MHB medium, and then diluted to a cell concentration of 1×10^7 cells/ml in physiological saline. Human macrophage cells (U937) were then infected with the resulting cells in time-dependent manner to yield the first sample, and another macrophage cells were infected with Acinetobacter baumannii KCTC 2508 cells, which have been diluted to a concentration of 1×10^7 cells, and added with, 1 hour after the infection, mother peptide LL37 or the homologous peptide to collect the second sample after 9 hours. Both collected samples were treated with cell lysis buffer to obtain the supernatant (sup) and pellet (lysate). Thereafter, by Western blot and real time reverse transcription polymerase chain reaction, a change in the expression level of inflammatory cytokines was examined.

[3] = tested on: Acinetobacter baumannii KCTC 2508; test: Low vacuum scanning electron microscopy (membrane-disrupting property); format: cell-based; conditions: peptide at MIC concentration, 30 minutes at 37° C.
Protocol: To specifically determine the degree of antimicrobial activity of the synthesized peptides of the present invention, the influence of mother peptide LL37 and homologous peptides LL37-1, LL37-2, LL37-3 and LL37-4 on bacteria membrane, i.e., membrane-disrupting property, was determined by low vacuum scanning electron microscopy.
Specifically, Acinetobacter baumannii KCTC 2508 cells were cultured to a mid-log phase in MHB medium, and then diluted to a cell concentration of 2×10^7 cells/ml in physiological saline containing 10% MHB medium. […] After that, by using 2.5% glutaraldehyde, the bacterial cells were fixed for 30 minutes at room temperature and then for 12 hours at 4° C. After carrying out washing with buffer, the cells were fixed again with […] and dehydrated in stepwise manner by using ethanol. After the dehydration, platinum coating was carried out and the cells were observed by low vacuum scanning electron microscopy.

[4] = tested on: Acinetobacter baumannii KCTC 2508; test: Flow cytometry after PI staining (bacteria membrane); format: cell-based; conditions: peptide at concentration of MIC, 30 minutes at 37° C.
Protocol: To determine whether or not the peptides prepared by the method of Example 1 have any effect on bacteria membrane, an analysis was made by flow cytometry.
After that, the supernatant was removed by centrifuge (10,000 rpm) and stained with propidium iodide (PI, concentration of 10 μg/ml) for 30 minutes at 4° C. Thereafter, unbound propidium iodide was removed by centrifuge, and the problem of cell aggregation phenomenon was solved by adding physiological saline (PBS) in an amount of 1 ml.

A. baumannii KCTC 2508 = test: Antibiofilm activity, Crystal violet staining; format: cell-based, Acinetobacter baumannii; conditions: 24 hours
Protocol: (§1) To compare the antimicrobial activity among the peptides produced by the method of Example 1, the inventors of the present invention measured the biofilm inhibitory concentration value of the peptide for not allowing any dissociation of bacterial cells.
(§2) Specifically, among the bacterial strains described in the above Table 2, bacteria showing the most favorable biofilm forming were cultured to a mid-log phase in a medium with suitable composition. Then, after dilution to bacterial cell concentration of 1×10^6 cells/50 μl, the cells were inoculated to a microtiter plate. Thereafter, LL37, LL37-1, LL37-2, LL37-3 or LL37-4 peptide which has been synthesized in Example 1 above was diluted, 1/10 times for each, with 10 mM phosphate buffered physiological saline (PBS) in a 96-well plate. After adding the peptide (50 μl) to each well of the plate, the cells were cultured for 24 hours at 37° C. After removing the supernatant completely, the cells were fixed with 100% methanol for 15 minutes and stained for 1 hour with Crystal violet staining solution followed by rinsing for 3 times. Then, after dissolving in 95% ethanol, the absorbance was measured at a wavelength of 595 nm by using a microtiter plate reader to determine the biofilm minimal inhibitory concentration value of each bacterial strain.

A. baumannii #10 = test: Antibiofilm activity, Crystal violet staining; format: cell-based, Acinetobacter baumannii; conditions: 24 hours
Protocol: as §1, §2

A. baumannii #5 = test: Antibiofilm activity, Crystal violet staining; format: cell-based, Acinetobacter baumannii; conditions: 24 hours
Protocol: as §1, §2

What does the source list for CC[C@H](C)[C@H](NC(=O)[C@H](CCCNC(=N)N)NC(=O)[C@H](CCC(N)=O)NC(=O)[C@@H](NC(=O)[C@@H](NC(=O)[C@H](CCCNC(=N)N)NC(=O)[C@H](CCCCN)NC(=O)[C@H](Cc1ccccc1)NC(=O)[C@H](CCCCN)NC(=O)[C@@H](N)CCCCN)[C@@H](C)CC)C(C)C)C(=O)N[C@@H](CCCCN)C(=O)N[C@@H](CC(=O)O)C(=O)N[C@@H](Cc1ccccc1)C(=O)N[C@@H](CC(C)C)C(=O)N[C@@H](CCCNC(=N)N)C(=O)N[C@@H](CC(N)=O)C(N)=O [LL37-2, KKFKRIVQRIKDFLRN-NH2] (H-KKFKRIVQRIKDFLRN-NH2)?
antimicrobial activity after reaction with trypsin [1]: showed the antimicrobial activity; expression level of HMGB-1 and late cytokine (IL-1b and TNF-α) [2]: increase in expression level of HMGB-1 and late cytokine is lower; membrane disruption compared to LL37-1 and LL37-3 (scanning electron microscopy) [3]: disrupted more; membrane-disrupting property (scanning electron microscopy) [3]: disruption of bacteria membrane; effect on bacteria membrane (PI fluorescence, flow cytometry) [4]: bacteria membrane was damaged; Biofilm forming ability (A. baumannii KCTC 2508; peptide 2 μM): 37%; Biofilm forming ability (A. baumannii KCTC 2508; peptide 4 μM): 34%; Biofilm forming ability (A. baumannii KCTC 2508; peptide 8 μM): 28%; Biofilm forming ability (A. baumannii KCTC 2508; peptide 16 μM): 22%; Biofilm forming ability (A. baumannii KCTC 2508; peptide 32 μM): 23%; Biofilm forming ability (A. baumannii #10; peptide 2 μM): 39%; Biofilm forming ability (A. baumannii #10; peptide 4 μM): 33%; Biofilm forming ability (A. baumannii #10; peptide 8 μM): 29%; Biofilm forming ability (A. baumannii #10; peptide 16 μM): 29%; Biofilm forming ability (A. baumannii #10; peptide 32 μM): 28%; Biofilm forming ability (A. baumannii #5; peptide 2 μM): 95%; Biofilm forming ability (A. baumannii #5; peptide 4 μM): 69%; Biofilm forming ability (A. baumannii #5; peptide 8 μM): 67%; Biofilm forming ability (A. baumannii #5; peptide 16 μM): 19%; Biofilm forming ability (A. baumannii #5; peptide 32 μM): 18%
